In PMC5494137 one finds binding data, which are given here for one substance.

Chains of the proteins cited; added tags and fusions are not shown. Residues count along the entry.
UniProt Q9UBN7, residues 1-503: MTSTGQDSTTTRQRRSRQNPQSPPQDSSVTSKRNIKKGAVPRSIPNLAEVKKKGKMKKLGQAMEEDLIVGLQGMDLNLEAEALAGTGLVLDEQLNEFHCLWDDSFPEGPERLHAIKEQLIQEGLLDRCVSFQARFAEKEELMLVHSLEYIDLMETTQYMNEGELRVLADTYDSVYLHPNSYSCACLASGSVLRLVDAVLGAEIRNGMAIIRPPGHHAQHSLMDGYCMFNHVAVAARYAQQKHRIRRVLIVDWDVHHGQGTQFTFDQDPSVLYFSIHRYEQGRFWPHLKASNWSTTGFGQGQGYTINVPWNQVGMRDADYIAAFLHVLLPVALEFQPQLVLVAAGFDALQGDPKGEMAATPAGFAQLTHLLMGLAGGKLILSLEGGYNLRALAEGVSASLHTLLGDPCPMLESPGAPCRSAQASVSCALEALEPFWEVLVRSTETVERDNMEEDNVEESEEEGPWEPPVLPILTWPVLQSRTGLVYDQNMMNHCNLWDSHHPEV
UniProt P69566: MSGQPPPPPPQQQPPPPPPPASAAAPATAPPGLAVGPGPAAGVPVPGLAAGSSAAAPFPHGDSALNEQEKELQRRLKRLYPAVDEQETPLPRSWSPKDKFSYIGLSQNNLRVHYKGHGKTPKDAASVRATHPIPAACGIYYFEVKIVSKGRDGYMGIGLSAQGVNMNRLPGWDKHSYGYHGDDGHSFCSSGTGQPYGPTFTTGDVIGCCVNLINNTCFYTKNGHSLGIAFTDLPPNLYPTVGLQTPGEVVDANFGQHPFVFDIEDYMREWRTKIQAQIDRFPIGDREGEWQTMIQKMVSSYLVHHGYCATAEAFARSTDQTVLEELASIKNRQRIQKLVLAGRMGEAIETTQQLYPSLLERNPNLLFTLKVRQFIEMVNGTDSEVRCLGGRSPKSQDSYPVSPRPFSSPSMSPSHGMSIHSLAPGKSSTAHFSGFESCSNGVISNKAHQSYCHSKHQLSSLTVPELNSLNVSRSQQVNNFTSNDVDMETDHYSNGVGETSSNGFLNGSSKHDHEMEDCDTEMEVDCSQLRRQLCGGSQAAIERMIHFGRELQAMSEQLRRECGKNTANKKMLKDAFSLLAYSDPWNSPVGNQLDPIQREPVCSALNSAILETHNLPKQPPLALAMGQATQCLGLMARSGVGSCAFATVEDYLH

The assay concerns the target HA-HDAC6-1-503-FLAG (pcDNA-HA-HDAC6-1-503-FLAG) (UniProt Q9UBN7). Put plainly: co-IP; FLAG antibody immunoprecipitation of HDAC6 constructs from whole cell extracts of transfected HDAC6 knockout MEFs; blot for endogenous RanBPM; 0.25% NP-40, 100 mM KCl lysis buffer, overnight at 4 °C.

These are yes or no findings as the source states them, for the method shown. Binding seen in cells or lysates may run through a third protein.

For “RanBPM, endogenous in mouse embryonic fibroblasts (from UniProt P69566 1-653)”, the binding entry was “no binding”.
